Certain results were filed several times, with different values. This list holds those alone. An entry can have further records. The records of an entry differ, and nothing given here explains why; they may come from other doses, times, organisms or constructs than stated.
Test system: BAX/Bcl-2 ratio
Test: Western blot, BAX/Bcl-2 ratio in HepG2 cells
Conditions: HepG2, 24 h; control 1.00; mean ± SEM of three experiments

O=C(CSc1nnc2c3nncn3c3ccccc3n12)Nc1ccc(C(=O)Nc2cc(Cl)ccc2Cl)cc1 [Compound 23j, 4-(2-(Bis([1,2, 4]triazolo)[4,3-a:3′,4′-c]uinoxaline-3-ylthio)acetamido)-N-(2,5-dichlorophenyl)benzamide]
Protein expression (normalized to β-actin) BAX/Bcl-2 ratio: 4.34 and 4.34 ···

From paper PMC8168755, “Discovery of new VEGFR-2 inhibitors based on bis([1, 2, 4]triazolo)[4,3-a:3',4'-c]quinoxaline derivatives as anticancer agents and apoptosis inducers” (Journal of Enzyme Inhibition and Medicinal Chemistry, 2021)
